Literature values in patent publication US6887886B2, “Therapeutic compositions comprising excess enantiomer” (Pfizer Inc., priority 2000, dated 2005).
At least one compound was matched to its structure with a doubt left.

What was measured:
[1] = test system: canine coronary microvessels; conditions: cited from earlier work
[2] = test system: myocardial oxygen consumption; conditions: cited from earlier work

For `CCOC(=O)C1=C(COCCN)NC(C)=C(C(=O)OC)C1c1ccccc1Cl` (racemic) [amlodipine racemate, amlodipine], the “enhancing NO production in combination with the ACE inhibitor ramaprilat” value [1] is listed as “synergistic” and the “regulating myocardial oxygen consumption in combination with the ACE inhibitor ramaprilat” value [2] is listed as “synergistic”.
